Here are results for 31 compounds from the supplement of paper PMC12889115.

The list shows a part of the results. These are raw signals, not scaled to a control.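 First-pass screen: polymyxin B was added at a level that permeabilizes the Salmonella outer membrane while sparing the inner membrane. DMSO wells, with and without polymyxin B, defined maximum growth. Because plates differed from one another, each plate's data were ranked separately and the compounds with the lowest OD600 were carried forward as hits.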

This experiment relates to Salmonella enterica serovar Typhimurium SL1344. Description: bacterial growth OD600 after 18 h with compound and polymyxin B; higher = more bacterial growth (less inhibition). The following applies: 50 µM, Mueller-Hinton broth.

Turning to `COC(=O)c1ccc(CN2CCCC(C(=O)c3cccc(OC)c3)C2)cc1` (stereo unspecified), under “polymyxin B 1 µg/mL”, the “bacterial growth OD600” value worked out at 0.778.

With `O=C(CCCc1cccs1)NC1CC(=O)N(Cc2ccccc2Cl)C1` (stereo unspecified), the “bacterial growth OD600” value (polymyxin B 1 µg/mL) came out at 0.86.

For `Cc1ccc(CNC2CC(=O)N(C3Cc4ccccc4C3)C2)o1` (stereo unspecified), where the note is “polymyxin B 1 µg/mL”, the “bacterial growth OD600” value came to 1.06.

`O=C(Cn1nnnc1CN1CCCCCC1)N1CCCCC1CCN1CCOCC1` (stereo unspecified): the “bacterial growth OD600” value (polymyxin B 0.75 µg/mL) amounted to 0.981.

Regarding `Cn1nccc1C(=O)N1CCCC(CCc2ccccc2)C1` (stereo unspecified), where the note is “polymyxin B 0.75 µg/mL”, the “bacterial growth OD600” value was 0.772.

Regarding `COc1cc([C@@H]2C[C@H]3CN(C4CCCC4)C(=O)[C@]34CCCN24)ccc1F`, the “bacterial growth OD600” value (polymyxin B 1 µg/mL) stood at 1.11.

In the case of `COc1cc(CN2CCNC(=O)C2CC(=O)N2CCCCCC2)cc(OC)c1` (stereo unspecified), for the setting “polymyxin B 0.75 µg/mL”, the “bacterial growth OD600” value turned out to be 0.793.

As to `CCCn1ncc(CN2CCCC(C(=O)c3cc(C)c(OC)c(C)c3)C2)c1C` (stereo unspecified), the “bacterial growth OD600” value (polymyxin B 1 µg/mL) is 0.897.

On to `CCC(C)C(=O)NCC1Cc2cc(-c3cc(OC)ccc3OC)cc(Cl)c2O1` (stereo unspecified), for which, for the setting “polymyxin B 0.75 µg/mL”, the “bacterial growth OD600” value was 0.595.

As to `COCCN1CCCC2(CCN(C(=O)c3cccc(Cl)c3)C2)C1=O` (stereo unspecified), the “bacterial growth OD600” value (polymyxin B 1 µg/mL) was found to be 0.867.

In the case of `Cc1cc(-c2nnc(CCC(=O)NCc3cccc(C(F)(F)F)c3)o2)no1`, under “polymyxin B 1 µg/mL”, the “bacterial growth OD600” value amounted to 0.904.

`CN(Cc1ccc2nccnc2c1)C(=O)CC1(c2cccc(F)c2)CC(=O)N(C2CCCC2)C1=O` (stereo unspecified): where the note is “polymyxin B 0.75 µg/mL”, the “bacterial growth OD600” value is 0.181.

As to `O=C(CCC1CCN(C(=O)C2CCCO2)CC1)N1CCC(Cc2ccccc2)CC1` (stereo unspecified), the “bacterial growth OD600” value (polymyxin B 1 µg/mL) turned out to be 1.01.

`c1ccc(Cc2noc(-c3ccc(NCCc4cnccn4)nc3)n2)cc1`: under “polymyxin B 0.75 µg/mL”, the “bacterial growth OD600” value was determined as 0.691.

As to `COc1ccc(C(=O)NC2CC2)c(OC2CCN(Cc3cccc(C)n3)CC2)c1`, the “bacterial growth OD600” value (polymyxin B 1 µg/mL) came to 1.23.

With `CCOC(=O)C1CCCN(c2nncc(-c3cccc4ccccc34)n2)C1` (stereo unspecified), the “bacterial growth OD600” value (polymyxin B 0.75 µg/mL) turned out to be 0.258.

Regarding `CSc1ccc(CC2(CCC(=O)NC(C)c3cnn(-c4ccccc4)c3)CCC(=O)N2)cc1` (stereo unspecified), the “bacterial growth OD600” value (polymyxin B 0.75 µg/mL) is 0.78.

On to `C=C(C)CNC(=O)C1CCCN(C2CCN(C(=O)C3CC3)CC2)C1` (stereo unspecified), for which, for the setting “polymyxin B 0.75 µg/mL”, the “bacterial growth OD600” value was found to be 0.831.

Regarding `COc1ccc(CN2CCOc3ccc(C(O)CCc4ccccc4)cc3C2)cc1OC` (stereo unspecified), the “bacterial growth OD600” value (polymyxin B 0.75 µg/mL) was 0.002.

In the case of `COCC(=O)Nc1cc(C(=O)N2CCN(c3ccccn3)CC2)c2c(c1)nc(C1CCC1)n2C`, the “bacterial growth OD600” value (polymyxin B 0.75 µg/mL) was 0.772.

In the case of `COc1ccc(CNC2CCCCCC2)c(OCC(O)CN2CCN(C)CC2)c1` (stereo unspecified), the “bacterial growth OD600” value (polymyxin B 1 µg/mL) came to 1.15.

Take `Cc1cccc(C)c1OCc1cc(C(=O)N2CCC(CCN3CCCC3=O)CC2)no1`: the “bacterial growth OD600” value (polymyxin B 0.75 µg/mL) was determined as 0.653.

With `Cc1ccccc1-n1ncc(C(C)NC(=O)c2cc(=O)n(C)c(=O)n2C)c1C` (stereo unspecified), the “bacterial growth OD600” value (polymyxin B 1 µg/mL) came to 0.958.

In the case of `COc1ccccc1OCc1cc(C(=O)N(CCO)Cc2ccccc2)no1`, under “polymyxin B 1 µg/mL”, the “bacterial growth OD600” value amounted to 0.855.

Turning to `CCOC(=O)C1(Cc2ccc(OC)cc2)CCN(S(=O)(=O)c2ccsc2)CC1`, the “bacterial growth OD600” value (polymyxin B 0.75 µg/mL) amounted to 0.855.

As for `Cc1ccccc1CCC1CCCN(C(=O)c2ccco2)C1` (stereo unspecified), the “bacterial growth OD600” value (polymyxin B 0.75 µg/mL) is 0.319.

With `COc1cccc(C(=O)NCC2Cc3cc(F)cc(-c4ccccn4)c3O2)c1` (stereo unspecified), where the note is “polymyxin B 0.75 µg/mL”, the “bacterial growth OD600” value came to 0.884.

`CO[C@H]1[C@H](NC(=O)c2ccco2)c2ccccc2C12CCN(Cc1cc(C)cc(C)c1)CC2`: the “bacterial growth OD600” value (polymyxin B 0.75 µg/mL) was 0.698.

Turning to `c1ccc2c(c1)CC(N1CCCC(NC3CSCCSC3)C1)C2` (stereo unspecified), where the note is “polymyxin B 1 µg/mL”, the “bacterial growth OD600” value came out at 1.14.

As to `COc1ccc(C(CC(=O)N2CCOCC2)c2ccccc2)cc1` (stereo unspecified), the “bacterial growth OD600” value (polymyxin B 1 µg/mL) came out at 0.748.

For `CN(C)C(=O)CCC(=O)N1CCc2onc(-c3ccccc3F)c2C1`, the “bacterial growth OD600” value (polymyxin B 0.75 µg/mL) was 0.969.
